Results are given in words; binding and its absence hold for the method and conditions named. Some binding calls cover weakened binding; strength is not graded here.
Biological target: T1, synthetic non-modified human Hepcidin-25 (human, not fully specified)
T1 peptide: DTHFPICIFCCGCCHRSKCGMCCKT
Experiment: competition ELISA, free human hepcidin against captured biotinylated hepcidin

B1: lipocalin mutein of SEQ ID NO: 1, linked to albumine-binding domain (ABD) (SEQ ID NO: 15) (designed binder)
chain: QDSTSDLIPAPPLSKVPLQQNFQDNQFHGKWYVVGLAGNEVLREDKDPMKMWATIYELEEDKSYNVTIVMFLAKKCEYLFQTFVPGSQPGEFTLGDIKSSPGRTSGLVRVVSTNYNQHAMVFFKVVWQNREVFWITLYGRTKELTSELKENFIRFSKSLGLPENHIVFPVPIDQCIDGSAGAVDANSLAEAKVLANRELDKYGVSDYYKNLINNAKTVEGVKALIDEILAALPSAWSHPQFEK
notes: also called ABD-fusion protein
binding: binds
